No constants are given. Whether binding was seen depends on the method and setting. In cells and extracts the contact can be indirect. Some binding calls cover weakened binding; strength is not graded here.
Target: receptor-interacting serine-threonine kinase 3 (RIPK3) (mouse (endogenous in colon tissue)) (UniProt Q9QZL0)
Test: co-IP; anti-RIPK3 antibody on protein A/G magnetic beads, incubated overnight at 4 °C with colon tissue supernatant in RIPA buffer; blot for MLKL; isotype IgG control; colon of control, TNBS model and TNBS + WMW treated mice

By UniProt entry, the sequences of proteins in these tests, tags left out.
UniProt Q9QZL0: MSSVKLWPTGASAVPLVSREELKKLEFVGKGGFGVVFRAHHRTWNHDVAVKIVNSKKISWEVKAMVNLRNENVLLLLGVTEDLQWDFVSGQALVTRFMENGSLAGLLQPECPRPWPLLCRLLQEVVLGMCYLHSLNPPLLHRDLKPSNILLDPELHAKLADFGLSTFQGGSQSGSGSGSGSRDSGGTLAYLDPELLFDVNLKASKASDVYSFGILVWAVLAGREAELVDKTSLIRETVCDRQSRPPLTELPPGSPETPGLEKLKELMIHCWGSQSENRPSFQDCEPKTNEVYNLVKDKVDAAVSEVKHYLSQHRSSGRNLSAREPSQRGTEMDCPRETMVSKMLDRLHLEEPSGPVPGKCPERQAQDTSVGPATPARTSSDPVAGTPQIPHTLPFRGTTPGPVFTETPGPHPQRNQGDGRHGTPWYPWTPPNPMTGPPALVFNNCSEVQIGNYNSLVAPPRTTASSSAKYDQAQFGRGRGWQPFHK

binding: binds
B1: mixed lineage kinase domain-like (MLKL) (protein, UniProt Q9D2Y4 1-472)
chain: MDKLGQIIKLGQLIYEQCEKMKYCRKQCQRLGNRVHGLLQPLQRLQAQGKKNLPDDITAALGRFDEVLKEANQQIEKFSKKSHIWKFVSVGNDKILFHEVNEKLRDVWEELLLLLQVYHWNTVSDVSQPASWQQEDRQDAEEDGNENMKVILMQLQISVEEINKTLKQCSLKPTQEIPQDLQIKEIPKEHLGPPWTKLKTSKMSTIYRGEYHRSPVTIKVFNNPQAESVGIVRFTFNDEIKTMKKFDSPNILRIFGICIDQTVKPPEFSIVMEYCELGTLRELLDREKDLTMSVRSLLVLRAARGLYRLHHSETLHRNISSSSFLVAGGYQVKLAGFELSKTQNSISRTAKSTKAERSSSTIYVSPERLKNPFCLYDIKAEIYSFGIVLWEIATGKIPFEGCDSKKIRELVAEDKKQEPVGQDCPELLREIINECRAHEPSQRPSVDGRSLSGRERILERLSAVEESTDKKV
